Results from article PMC5216755.
No constants are given. Whether binding was seen depends on the method and setting. Binding seen in cells or lysates may run through a third protein. Some binding calls cover weakened binding; strength is not graded here.

Legend:
[1] = biological target: FLAG/HA epitope-tagged PPP3CA constitutively active mutant (F/H-PPP3CA*), stably expressed in Jurkat cells (human) (UniProt Q08209); assay: co-IP; F/H-PPP3CA*-expressing or mock-transduced Jurkat cells; IP anti-FLAG; immunoblot of endogenous partners
[2] = biological target: PPP3CA (endogenous, Jurkat T-ALL cells) (human (endogenous in Jurkat)) (UniProt Q08209); assay: co-IP; endogenous PPP3CA immunoprecipitated from Jurkat lysates (RIPA lysis, diluted 1:3 with CO-IP buffer) with a mouse antibody against PPP3CA or irrelevant mouse Ig; basal conditions and after 1 h ionomycin, cyclosporin A or vehicle; immunoblot of endogenous partners

B1: Rb (endogenous, Jurkat) (protein, UniProt P06400 1-928)
chain: MPPKTPRKTAATAAAAAAEPPAPPPPPPPEEDPEQDSGPEDLPLVRLEFEETEEPDFTALCQKLKIPDHVRERAWLTWEKVSSVDGVLGGYIQKKKELWGICIFIAAVDLDEMSFTFTELQKNIEISVHKFFNLLKEIDTSTKVDNAMSRLLKKYDVLFALFSKLERTCELIYLTQPSSSISTEINSALVLKVSWITFLLAKGEVLQMEDDLVISFQLMLCVLDYFIKLSPPMLLKEPYKTAVIPINGSPRTPRRGQNRSARIAKQLENDTRIIEVLCKEHECNIDEVKNVYFKNFIPFMNSLGLVTSNGLPEVENLSKRYEEIYLKNKDLDARLFLDHDKTLQTDSIDSFETQRTPRKSNLDEEVNVIPPHTPVRTVMNTIQQLMMILNSASDQPSENLISYFNNCTVNPKESILKRVKDIGYIFKEKFAKAVGQGCVEIGSQRYKLGVRLYYRVMESMLKSEEERLSIQNFSKLLNDNIFHMSLLACALEVVMATYSRSTSQNLDSGTDLSFPWILNVLNLKAFDFYKVIESFIKAEGNLTREMIKHLERCEHRIMESLAWLSDSPLFDLIKQSKDREGPTDHLESACPLNLPLQNNHTAADMYLSPVRSPKKKGSTTRVNSTANAETQATSAFQTQKPLKSTSLSLFYKKVYRLAYLRLNTLCERLLSEHPELEHIIWTLFQHTLQNEYELMRDRHLDQIMMCSMYGICKVKNIDLKFKIIVTAYKDLPHAVQETFKRVLIKEEEYDSIIVFYNSVFMQRLKTNILQYASTRPPTLSPIPHIPRSPYKFPSSPLRIPGGNIYISPLKSPYKISEGLPTPTKMTPRSRILVSIGESFGTSEKFQKINQMVCNSDRVLKRSAEGSNPPKPLKKLRFDIEGSDEADGSKHLPGESKFQQKLAEMTSTRTRMQKQKMNDSMDTSNKEEK
[1]
  binding: binds
[2]
  binding: binds
